Data as given in article doi:10.1101/2020.06.07.138792.
For at least one entry, the source does not settle the construct or the ends of the probe. Where cells or extracts were used, other partners may take part. At least one verdict rests on a figure or table, not on a statement of the authors.

The chains behind the UniProt entries cited, without tags or fusion partners. Where a name states a change or a piece, a line headed by the entry shows the natural chain unless it says otherwise.
UniProt P54577: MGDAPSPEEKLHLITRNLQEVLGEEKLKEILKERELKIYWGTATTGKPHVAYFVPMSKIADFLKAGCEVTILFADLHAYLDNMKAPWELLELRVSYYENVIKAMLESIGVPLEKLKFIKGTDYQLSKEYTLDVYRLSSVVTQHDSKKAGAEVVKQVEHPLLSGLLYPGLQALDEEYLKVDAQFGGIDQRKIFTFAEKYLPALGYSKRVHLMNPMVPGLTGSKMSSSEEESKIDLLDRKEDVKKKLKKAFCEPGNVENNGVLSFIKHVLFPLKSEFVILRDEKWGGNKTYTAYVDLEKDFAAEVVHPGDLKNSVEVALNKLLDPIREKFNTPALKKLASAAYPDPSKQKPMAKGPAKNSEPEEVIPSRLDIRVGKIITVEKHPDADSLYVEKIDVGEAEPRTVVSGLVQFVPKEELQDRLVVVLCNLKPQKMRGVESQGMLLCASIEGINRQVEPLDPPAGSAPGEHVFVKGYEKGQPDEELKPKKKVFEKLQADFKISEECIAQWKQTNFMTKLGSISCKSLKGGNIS

Target: TyrRS-V5 in nuclear extract (UniProt P54577)
Test: EMSA supershift
Settings: anti-V5 antibody, protein in an extract

ACTCTCTGCTGCTCCTCACTTTTTCCGG (double strand) [DNA (WT), TyrRS binding site on the TyrRS gene, 28 bp]
binding result: binds
